In the supplement of paper PMC10849652:
Some of the results follow.

The chains behind the UniProt entries cited, without tags or fusion partners. Where a name states a change or a piece, a line headed by the entry shows the natural chain unless it says otherwise.
UniProt P29692: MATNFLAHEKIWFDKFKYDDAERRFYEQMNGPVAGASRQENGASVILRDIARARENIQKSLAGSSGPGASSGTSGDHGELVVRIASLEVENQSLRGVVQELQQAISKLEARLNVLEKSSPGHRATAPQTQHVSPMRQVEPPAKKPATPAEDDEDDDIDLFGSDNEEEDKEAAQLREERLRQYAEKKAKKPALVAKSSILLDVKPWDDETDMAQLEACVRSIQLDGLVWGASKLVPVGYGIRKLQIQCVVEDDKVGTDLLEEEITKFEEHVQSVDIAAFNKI
UniProt Q8N3D4: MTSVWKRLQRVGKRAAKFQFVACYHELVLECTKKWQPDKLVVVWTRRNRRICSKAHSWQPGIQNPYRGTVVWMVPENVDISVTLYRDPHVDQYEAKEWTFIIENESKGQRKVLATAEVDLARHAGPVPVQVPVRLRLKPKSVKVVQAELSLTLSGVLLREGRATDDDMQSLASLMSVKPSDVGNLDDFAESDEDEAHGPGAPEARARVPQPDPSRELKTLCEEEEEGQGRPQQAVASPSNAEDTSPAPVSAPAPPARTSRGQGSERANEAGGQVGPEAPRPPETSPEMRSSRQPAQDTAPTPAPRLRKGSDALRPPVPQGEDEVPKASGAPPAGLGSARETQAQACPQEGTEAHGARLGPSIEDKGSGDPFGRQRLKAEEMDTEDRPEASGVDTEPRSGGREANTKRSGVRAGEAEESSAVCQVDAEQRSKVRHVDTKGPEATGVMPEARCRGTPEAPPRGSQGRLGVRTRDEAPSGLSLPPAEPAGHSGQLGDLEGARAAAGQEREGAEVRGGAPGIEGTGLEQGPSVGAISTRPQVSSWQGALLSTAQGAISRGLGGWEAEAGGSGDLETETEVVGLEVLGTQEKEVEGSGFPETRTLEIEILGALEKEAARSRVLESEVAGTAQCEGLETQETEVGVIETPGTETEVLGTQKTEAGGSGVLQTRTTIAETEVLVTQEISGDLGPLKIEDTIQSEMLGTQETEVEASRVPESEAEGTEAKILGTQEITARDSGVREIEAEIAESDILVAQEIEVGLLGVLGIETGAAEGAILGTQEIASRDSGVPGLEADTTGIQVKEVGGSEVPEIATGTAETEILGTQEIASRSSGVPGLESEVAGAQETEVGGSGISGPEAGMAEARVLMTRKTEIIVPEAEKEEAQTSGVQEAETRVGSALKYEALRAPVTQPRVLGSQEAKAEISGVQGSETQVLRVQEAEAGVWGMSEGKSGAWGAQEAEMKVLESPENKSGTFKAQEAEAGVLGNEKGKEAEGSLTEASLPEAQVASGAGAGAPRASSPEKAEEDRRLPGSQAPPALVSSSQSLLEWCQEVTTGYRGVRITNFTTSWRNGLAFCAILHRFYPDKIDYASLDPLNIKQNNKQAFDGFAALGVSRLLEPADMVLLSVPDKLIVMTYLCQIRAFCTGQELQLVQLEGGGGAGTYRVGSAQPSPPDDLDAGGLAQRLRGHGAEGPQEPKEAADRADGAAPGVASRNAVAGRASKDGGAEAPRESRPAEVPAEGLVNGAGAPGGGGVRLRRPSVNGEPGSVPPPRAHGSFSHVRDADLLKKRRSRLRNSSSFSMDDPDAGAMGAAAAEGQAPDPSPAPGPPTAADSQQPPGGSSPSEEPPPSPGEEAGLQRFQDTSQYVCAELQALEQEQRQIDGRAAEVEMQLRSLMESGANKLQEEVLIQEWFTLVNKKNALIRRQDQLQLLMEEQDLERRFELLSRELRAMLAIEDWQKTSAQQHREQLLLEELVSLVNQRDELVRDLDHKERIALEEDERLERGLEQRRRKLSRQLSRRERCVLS
UniProt Q99848: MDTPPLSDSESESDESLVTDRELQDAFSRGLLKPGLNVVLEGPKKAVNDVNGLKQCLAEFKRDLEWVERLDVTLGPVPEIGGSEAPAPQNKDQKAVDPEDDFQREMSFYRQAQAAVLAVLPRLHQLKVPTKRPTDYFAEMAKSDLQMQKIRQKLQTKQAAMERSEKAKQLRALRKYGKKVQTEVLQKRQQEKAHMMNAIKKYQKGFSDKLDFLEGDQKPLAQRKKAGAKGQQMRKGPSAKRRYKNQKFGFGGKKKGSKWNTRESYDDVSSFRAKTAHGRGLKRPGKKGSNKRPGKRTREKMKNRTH
UniProt P26641, whole entry, looked up: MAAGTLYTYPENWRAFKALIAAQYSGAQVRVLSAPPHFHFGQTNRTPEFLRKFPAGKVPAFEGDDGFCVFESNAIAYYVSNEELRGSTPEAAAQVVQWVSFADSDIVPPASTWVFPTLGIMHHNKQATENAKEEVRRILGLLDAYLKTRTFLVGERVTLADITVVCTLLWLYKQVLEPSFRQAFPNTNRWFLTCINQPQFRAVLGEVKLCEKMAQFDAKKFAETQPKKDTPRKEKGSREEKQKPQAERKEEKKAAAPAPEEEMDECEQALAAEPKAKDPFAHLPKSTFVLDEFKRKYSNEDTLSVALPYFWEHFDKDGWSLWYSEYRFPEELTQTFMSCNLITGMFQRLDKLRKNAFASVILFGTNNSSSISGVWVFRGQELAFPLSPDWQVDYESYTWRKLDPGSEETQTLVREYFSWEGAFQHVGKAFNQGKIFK
UniProt P63172, whole entry, looked up: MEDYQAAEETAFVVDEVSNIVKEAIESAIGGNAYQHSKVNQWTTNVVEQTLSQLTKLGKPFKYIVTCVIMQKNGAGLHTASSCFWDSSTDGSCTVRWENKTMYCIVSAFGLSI
UniProt P51452: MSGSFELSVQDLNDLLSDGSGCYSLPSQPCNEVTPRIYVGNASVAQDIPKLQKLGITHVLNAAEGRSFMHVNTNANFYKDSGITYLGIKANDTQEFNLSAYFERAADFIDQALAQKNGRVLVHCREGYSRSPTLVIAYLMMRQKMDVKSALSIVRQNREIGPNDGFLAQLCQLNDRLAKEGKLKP
UniProt Q9H2P9: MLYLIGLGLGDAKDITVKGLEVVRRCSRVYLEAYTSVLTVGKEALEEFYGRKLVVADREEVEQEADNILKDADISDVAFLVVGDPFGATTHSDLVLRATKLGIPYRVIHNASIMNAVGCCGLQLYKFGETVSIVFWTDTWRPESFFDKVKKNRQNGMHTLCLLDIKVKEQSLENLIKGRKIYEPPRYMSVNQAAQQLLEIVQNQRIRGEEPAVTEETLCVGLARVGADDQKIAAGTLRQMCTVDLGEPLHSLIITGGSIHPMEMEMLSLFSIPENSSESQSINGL
UniProt P33316: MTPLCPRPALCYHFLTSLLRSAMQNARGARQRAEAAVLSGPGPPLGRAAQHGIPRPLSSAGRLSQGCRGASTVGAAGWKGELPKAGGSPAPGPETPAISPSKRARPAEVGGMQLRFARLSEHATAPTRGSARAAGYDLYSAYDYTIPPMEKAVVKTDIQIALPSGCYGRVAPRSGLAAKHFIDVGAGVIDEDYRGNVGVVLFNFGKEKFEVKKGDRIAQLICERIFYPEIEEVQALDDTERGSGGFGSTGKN
UniProt P24534: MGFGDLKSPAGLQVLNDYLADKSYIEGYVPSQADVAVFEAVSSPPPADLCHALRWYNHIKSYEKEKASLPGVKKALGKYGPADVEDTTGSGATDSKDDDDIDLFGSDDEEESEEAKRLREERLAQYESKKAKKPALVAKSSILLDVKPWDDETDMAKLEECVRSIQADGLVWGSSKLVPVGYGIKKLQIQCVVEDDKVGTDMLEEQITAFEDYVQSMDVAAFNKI
UniProt Q96FJ2, whole entry, looked up: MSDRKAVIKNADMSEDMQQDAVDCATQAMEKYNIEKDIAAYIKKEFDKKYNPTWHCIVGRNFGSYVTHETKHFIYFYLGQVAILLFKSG
UniProt Q3B7T1: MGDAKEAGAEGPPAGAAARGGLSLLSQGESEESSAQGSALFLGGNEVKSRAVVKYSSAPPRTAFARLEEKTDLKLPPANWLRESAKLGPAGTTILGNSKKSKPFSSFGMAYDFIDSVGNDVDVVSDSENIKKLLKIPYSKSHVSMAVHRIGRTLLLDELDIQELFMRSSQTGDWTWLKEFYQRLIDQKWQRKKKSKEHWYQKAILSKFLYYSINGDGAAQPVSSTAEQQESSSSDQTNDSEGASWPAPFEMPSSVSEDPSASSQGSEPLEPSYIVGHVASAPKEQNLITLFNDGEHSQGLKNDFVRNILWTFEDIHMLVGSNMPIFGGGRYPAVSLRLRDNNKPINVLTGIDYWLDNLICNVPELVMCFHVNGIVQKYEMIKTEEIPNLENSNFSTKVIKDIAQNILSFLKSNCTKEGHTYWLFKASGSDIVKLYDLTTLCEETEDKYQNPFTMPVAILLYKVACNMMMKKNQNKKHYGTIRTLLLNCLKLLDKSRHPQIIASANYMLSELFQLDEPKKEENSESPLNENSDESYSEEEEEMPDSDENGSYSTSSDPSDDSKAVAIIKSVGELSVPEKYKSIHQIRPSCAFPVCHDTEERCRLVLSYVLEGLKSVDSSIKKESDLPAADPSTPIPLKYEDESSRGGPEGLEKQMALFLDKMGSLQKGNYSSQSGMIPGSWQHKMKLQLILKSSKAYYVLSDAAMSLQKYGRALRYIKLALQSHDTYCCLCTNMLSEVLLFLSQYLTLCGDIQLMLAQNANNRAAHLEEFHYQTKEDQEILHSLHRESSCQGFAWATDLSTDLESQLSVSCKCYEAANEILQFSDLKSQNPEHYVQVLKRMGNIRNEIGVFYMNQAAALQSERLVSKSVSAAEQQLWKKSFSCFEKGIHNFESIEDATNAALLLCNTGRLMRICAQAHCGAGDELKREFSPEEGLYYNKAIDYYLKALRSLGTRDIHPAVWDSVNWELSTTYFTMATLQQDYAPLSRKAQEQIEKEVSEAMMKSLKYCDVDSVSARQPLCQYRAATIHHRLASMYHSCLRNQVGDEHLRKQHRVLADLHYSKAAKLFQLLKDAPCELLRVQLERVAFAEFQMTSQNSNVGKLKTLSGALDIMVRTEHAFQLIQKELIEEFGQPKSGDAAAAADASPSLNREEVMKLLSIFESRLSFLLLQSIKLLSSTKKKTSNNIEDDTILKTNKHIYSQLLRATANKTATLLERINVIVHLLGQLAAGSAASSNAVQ
UniProt Q66K89: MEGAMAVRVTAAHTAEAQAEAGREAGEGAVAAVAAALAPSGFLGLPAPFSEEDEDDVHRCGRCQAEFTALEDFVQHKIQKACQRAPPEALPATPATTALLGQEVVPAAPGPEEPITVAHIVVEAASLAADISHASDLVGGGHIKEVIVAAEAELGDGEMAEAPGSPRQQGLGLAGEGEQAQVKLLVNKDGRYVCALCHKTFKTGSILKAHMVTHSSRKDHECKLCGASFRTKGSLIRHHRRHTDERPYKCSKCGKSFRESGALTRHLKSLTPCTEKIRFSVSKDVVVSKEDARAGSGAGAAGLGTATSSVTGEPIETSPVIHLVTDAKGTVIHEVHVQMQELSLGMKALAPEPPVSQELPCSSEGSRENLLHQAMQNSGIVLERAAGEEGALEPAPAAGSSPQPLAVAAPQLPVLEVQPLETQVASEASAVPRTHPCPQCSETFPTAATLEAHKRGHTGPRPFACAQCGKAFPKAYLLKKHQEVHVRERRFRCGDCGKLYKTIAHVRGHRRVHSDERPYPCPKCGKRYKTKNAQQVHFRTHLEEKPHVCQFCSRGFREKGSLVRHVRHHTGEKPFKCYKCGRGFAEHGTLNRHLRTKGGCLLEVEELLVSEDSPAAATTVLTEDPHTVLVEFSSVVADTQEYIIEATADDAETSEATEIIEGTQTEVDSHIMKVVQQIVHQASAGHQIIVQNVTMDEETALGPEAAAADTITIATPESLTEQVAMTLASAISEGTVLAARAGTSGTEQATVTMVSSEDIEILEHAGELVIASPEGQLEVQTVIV
UniProt Q92785, whole entry, looked up: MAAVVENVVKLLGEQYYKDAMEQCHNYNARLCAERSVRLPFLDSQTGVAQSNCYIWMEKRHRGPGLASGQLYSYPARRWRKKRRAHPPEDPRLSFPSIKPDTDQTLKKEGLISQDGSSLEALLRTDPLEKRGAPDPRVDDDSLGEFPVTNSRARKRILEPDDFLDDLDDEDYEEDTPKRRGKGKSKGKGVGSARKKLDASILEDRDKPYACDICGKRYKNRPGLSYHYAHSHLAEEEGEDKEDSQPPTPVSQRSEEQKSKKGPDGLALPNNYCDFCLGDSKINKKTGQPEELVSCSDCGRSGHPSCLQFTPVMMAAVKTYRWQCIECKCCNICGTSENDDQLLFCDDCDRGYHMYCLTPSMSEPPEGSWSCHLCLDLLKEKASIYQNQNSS
UniProt Q9BQC3: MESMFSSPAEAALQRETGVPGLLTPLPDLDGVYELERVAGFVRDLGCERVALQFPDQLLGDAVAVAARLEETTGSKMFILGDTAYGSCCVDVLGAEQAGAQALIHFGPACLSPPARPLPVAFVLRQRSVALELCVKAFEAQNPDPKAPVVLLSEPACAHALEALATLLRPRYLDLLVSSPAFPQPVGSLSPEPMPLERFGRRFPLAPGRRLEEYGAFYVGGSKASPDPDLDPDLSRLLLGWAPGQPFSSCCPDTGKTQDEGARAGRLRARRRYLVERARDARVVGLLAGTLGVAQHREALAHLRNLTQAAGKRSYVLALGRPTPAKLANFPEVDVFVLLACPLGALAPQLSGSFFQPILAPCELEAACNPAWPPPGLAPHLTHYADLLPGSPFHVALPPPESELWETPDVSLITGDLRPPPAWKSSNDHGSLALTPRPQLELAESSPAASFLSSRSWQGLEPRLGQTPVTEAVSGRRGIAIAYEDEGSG

Compound: CC(C)C1=C2N=C(C=C(N2N=C1)NCC3=CC=CC=C3)NCCCCCCN
Test: log2 fold change, soluble protein after heating vs DMSO (PISA); higher = thermal stabilisation; K562 lysate, 10 uM; active = over 0.2 and 3.5 SD of the protein, either way, in both replicates (recomputed)
Summary of the method: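 Log-two fold change in thermal stability relative to solvent controls is reported from duplicates. For each sample, crude K562 extract from dounce-homogenised pellets in PBS pH 7.4 with 1 mM MgCl2, at 1 mg/mL protein, was treated with 10 μM compound for 30 min. Aliquots heated for 3 min across 48°C-58°C were pooled, brought to 0.5% NP-40 at 4°C and cleared at 21,000xg for 90 min. The supernatant was quantified by TMTpro 16plex LC-MS/MS with channel sums equalised.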

log2 fold change, inactive:
EEF1D isoform 2 (UniProt P29692) -0.004
DSN1 (UniProt Q9H410) -0.015
EHBP1L1 (UniProt Q8N3D4) -0.031
EBNA1BP2 (UniProt Q99848) -0.02
EAPP (UniProt Q56P03) -0.035
DSTN (UniProt P60981) -0.006
EIF1AD (UniProt Q8N9N8) 0.017
EHD1 (UniProt Q9H4M9) -0.017
EEF1G isoform 2 (UniProt P26641) 0.002
ECT2 (UniProt Q9H8V3) -0.074
EHBP1 isoform 2 (UniProt Q8NDI1) -0.007
DYNLT1 (UniProt P63172) -0.089
DUSP3 (UniProt P51452) -0.002
EEF1A1, A0A087WVQ9 -0.007
DPH5 isoform 5 (UniProt Q9H2P9) 0.298
DUT (UniProt P33316) -0.027
EEF1B2 (UniProt P24534) -0.007
DYNLL2 (UniProt Q96FJ2) 0.117
EDRF1 (UniProt Q3B7T1) -0.008
DUS1L (UniProt Q6P1R4) 0.101
E4F1 (UniProt Q66K89) -0.176
DPF2 (UniProt Q92785) -0.02
DPH2 (UniProt Q9BQC3) 0

A portion of the results above, for reference:
log2 fold change, inactive:
EHBP1L1 (UniProt Q8N3D4) -0.031
EBNA1BP2 (UniProt Q99848) -0.02
